The assay can be described thus: Binding affinity to human telomerase P2b RNA by […]. The gist of the method:
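hTR-P2b RNA made by in vitro T7 polymerase transcription from a synthetic DNA template. Titration was at 50 μM RNA in 20 mM sodium phosphate pH 6.7, 50 mM NaCl, 90/10% H₂O/D₂O, 15 °C, with ligand added stepwise. Kd was fitted from 800 MHz imino-proton chemical shifts under a fast-exchange model. Monte Carlo fitting pooled at least 2 (typically 3) peaks to give the standard deviation.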

For the compound `OCCOCCN1CCN(C2=Nc3ccccc3Sc3ccccc32)CC1` [QUETIAPINE], the affinity, expressed as Kd, was 1300 µM.

By Kd is commonly meant the equilibrium constant for the complex coming apart.

Values taken from ChEMBL document CHEMBL1152278, “Discovery of ligands for a novel target, the human telomerase RNA, based on flexible-target virtual screening and NMR” (J Med Chem, 2008).
